These are yes or no findings as the source states them, for the method shown. For part of these data: Where a sequence is shown, tags or fusion partners need not be part of it.
Legend:
[1] = molecular target: DNA-dependent protein kinase catalytic subunit (DNA-PKcs) (human (endogenous in HeLa)) (UniProt P78527)
GST-APLF W189G (human) = GST-APLF W189G (human) (UniProt Q8IW19)
[2] = molecular target: T1, GST-APLF R182E/K183E/R184E (human) (UniProt Q8IW19)
T1 sequence: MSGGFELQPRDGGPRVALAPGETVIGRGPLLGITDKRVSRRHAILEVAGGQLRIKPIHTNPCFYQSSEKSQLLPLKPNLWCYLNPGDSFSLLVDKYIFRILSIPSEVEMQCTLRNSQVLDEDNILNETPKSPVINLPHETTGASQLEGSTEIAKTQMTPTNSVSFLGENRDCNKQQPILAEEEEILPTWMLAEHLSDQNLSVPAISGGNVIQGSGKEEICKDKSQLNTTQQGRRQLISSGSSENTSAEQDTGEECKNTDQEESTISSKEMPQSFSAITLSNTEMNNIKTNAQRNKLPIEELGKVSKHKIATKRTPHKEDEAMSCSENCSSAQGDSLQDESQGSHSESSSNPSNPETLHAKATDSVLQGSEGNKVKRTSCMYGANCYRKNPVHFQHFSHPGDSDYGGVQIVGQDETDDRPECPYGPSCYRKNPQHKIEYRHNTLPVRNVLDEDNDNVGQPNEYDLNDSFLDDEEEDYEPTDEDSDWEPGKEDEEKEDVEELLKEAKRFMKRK

By UniProt entry, the sequences of proteins in these tests, tags left out. Residues count along the entry.
UniProt P78527: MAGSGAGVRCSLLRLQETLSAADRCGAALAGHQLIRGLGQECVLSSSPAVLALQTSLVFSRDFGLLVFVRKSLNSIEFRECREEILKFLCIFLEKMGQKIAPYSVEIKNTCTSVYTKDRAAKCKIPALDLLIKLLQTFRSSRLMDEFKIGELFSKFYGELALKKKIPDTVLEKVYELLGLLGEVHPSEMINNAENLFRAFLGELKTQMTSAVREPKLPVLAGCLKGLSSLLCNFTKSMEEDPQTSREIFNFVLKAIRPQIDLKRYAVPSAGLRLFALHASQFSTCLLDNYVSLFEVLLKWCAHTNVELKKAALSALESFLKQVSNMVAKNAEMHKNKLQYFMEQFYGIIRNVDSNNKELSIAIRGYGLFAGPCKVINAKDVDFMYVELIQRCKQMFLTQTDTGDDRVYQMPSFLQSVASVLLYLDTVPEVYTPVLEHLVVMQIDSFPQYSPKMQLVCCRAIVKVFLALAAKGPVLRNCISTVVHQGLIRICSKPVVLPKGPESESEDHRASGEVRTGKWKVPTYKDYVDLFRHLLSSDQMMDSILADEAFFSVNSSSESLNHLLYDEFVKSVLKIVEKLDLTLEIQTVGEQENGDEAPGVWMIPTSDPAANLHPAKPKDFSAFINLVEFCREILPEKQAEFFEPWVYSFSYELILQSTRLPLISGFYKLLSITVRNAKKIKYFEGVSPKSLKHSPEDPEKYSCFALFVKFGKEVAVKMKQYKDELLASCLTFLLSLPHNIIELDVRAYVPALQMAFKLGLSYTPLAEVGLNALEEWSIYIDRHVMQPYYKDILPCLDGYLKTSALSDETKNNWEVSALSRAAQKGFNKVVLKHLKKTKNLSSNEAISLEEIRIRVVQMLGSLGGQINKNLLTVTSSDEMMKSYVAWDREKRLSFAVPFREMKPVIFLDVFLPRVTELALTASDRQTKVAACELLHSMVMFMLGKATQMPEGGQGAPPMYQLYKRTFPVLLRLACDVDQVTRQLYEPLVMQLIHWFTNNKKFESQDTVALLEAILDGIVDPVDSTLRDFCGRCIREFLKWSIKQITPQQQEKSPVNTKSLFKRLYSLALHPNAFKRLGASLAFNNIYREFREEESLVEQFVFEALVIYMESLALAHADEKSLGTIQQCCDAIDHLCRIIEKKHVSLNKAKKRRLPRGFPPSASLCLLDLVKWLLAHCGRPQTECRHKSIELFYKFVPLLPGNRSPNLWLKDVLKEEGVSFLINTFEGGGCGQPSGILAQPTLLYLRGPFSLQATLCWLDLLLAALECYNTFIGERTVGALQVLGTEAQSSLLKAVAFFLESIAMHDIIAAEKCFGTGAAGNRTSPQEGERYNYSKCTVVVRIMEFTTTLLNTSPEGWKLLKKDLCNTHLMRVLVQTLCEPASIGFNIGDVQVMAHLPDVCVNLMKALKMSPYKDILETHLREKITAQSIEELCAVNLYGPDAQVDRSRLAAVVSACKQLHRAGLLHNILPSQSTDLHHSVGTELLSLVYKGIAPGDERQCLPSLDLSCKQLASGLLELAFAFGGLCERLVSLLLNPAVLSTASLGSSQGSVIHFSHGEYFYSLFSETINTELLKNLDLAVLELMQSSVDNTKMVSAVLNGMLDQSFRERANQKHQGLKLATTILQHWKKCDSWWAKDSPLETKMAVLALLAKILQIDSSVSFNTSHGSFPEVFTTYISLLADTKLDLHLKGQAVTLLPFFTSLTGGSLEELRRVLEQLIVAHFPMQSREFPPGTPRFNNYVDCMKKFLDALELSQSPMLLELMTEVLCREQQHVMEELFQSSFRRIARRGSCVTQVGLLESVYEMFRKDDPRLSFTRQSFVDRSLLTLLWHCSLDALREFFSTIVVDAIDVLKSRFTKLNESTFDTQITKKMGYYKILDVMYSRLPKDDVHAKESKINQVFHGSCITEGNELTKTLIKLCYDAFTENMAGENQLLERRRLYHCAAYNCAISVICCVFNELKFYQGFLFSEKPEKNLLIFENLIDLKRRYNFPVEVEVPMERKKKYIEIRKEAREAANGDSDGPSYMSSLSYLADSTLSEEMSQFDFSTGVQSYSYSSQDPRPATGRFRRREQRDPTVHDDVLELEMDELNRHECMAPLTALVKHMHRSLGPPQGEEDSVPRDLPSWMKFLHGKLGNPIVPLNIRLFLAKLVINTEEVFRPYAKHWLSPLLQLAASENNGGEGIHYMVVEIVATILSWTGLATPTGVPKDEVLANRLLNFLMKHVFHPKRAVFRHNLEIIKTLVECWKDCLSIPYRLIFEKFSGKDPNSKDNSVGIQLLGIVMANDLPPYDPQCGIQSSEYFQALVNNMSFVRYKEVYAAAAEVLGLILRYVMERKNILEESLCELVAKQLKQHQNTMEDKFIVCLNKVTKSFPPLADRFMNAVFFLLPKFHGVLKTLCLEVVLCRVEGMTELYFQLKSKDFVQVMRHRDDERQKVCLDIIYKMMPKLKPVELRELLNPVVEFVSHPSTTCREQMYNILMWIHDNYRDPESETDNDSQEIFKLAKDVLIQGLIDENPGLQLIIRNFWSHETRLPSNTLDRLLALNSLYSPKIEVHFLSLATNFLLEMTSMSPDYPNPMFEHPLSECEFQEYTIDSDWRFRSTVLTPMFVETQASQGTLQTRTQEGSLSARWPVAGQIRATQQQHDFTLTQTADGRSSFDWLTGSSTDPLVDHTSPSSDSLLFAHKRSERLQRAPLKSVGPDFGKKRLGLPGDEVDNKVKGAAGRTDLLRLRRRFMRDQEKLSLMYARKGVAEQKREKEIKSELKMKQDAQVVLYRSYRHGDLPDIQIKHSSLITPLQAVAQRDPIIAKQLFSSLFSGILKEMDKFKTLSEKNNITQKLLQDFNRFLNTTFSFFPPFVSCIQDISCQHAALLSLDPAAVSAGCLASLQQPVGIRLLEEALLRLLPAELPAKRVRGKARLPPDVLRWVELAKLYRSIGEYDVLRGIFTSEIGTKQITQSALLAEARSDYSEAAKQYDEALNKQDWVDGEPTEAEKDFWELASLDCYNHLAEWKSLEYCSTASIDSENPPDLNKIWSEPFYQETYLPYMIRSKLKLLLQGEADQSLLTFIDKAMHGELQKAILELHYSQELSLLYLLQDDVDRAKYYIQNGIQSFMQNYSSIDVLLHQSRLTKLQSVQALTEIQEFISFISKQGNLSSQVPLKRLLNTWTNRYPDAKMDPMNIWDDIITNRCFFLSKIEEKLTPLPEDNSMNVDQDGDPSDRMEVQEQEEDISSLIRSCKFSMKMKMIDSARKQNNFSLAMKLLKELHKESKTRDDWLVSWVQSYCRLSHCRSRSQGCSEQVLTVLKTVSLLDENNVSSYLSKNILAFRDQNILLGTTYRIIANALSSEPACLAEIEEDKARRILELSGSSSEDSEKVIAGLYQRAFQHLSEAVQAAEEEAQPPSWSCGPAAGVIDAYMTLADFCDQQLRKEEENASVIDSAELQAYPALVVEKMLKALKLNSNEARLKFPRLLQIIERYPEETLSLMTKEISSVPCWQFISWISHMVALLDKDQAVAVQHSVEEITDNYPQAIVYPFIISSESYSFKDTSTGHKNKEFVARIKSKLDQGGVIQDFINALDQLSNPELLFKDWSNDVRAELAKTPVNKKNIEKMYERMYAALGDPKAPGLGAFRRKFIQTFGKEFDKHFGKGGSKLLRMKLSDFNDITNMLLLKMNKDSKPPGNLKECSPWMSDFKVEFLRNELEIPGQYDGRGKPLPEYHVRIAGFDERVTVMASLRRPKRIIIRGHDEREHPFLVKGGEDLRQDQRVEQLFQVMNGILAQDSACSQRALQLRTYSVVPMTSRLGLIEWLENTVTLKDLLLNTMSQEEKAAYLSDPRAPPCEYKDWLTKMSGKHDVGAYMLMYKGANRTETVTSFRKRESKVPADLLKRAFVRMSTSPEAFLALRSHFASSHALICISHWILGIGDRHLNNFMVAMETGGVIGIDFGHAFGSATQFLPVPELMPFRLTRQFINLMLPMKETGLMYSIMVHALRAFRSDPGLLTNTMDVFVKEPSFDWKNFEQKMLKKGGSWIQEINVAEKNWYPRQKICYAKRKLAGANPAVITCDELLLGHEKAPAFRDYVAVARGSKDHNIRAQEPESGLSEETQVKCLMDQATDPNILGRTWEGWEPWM
UniProt P02769, residues 25-607: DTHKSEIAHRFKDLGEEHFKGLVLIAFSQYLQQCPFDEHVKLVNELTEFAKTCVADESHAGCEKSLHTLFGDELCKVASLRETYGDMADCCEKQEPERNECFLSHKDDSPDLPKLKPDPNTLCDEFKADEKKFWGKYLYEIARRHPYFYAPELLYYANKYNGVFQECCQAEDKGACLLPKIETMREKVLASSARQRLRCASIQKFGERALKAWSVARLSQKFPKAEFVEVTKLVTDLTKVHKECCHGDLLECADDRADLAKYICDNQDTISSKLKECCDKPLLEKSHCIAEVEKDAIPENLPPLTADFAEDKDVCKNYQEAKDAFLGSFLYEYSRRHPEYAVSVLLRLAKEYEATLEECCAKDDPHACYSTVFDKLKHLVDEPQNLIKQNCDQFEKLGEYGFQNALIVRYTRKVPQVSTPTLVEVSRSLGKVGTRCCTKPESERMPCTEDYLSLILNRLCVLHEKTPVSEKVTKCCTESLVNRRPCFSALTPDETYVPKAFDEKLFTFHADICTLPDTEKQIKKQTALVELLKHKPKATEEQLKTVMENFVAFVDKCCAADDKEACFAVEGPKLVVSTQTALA

In the case of BSA (from UniProt P02769 25-607), the binding [1] is reported as “no binding (tested: 6, 12, or 24 pmol of BSA)”.

In the case of “DNA-dependent protein kinase catalytic subunit (DNA-PKcs) (from UniProt P78527 1-4128) (enzyme)”, the binding (GST-APLF W189G (human)) is reported as “no binding” and the binding [2] is reported as “no binding”.

From publication PMC5207133
